No constants are given. Whether binding was seen depends on the method and setting. Some results given as binding are weak or reduced against the parent protein; the word gives no strength.
Molecular target: IGF-I (UniProt P05019)
Assay: ligand blot with 125I-IGF-I (weaker than IGF-II)

Chains of the proteins cited; added tags and fusions are not shown. Residues count along the entry.
UniProt P05019, residues 49-118: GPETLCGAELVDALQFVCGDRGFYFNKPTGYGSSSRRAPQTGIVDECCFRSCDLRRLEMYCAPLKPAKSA

B1: IGFBP-6 (protein)
chain: RCPGCGQGVQAGCPGGCVEEEDGGSPAEGCAEAEGCLRREGQECGVYTPNCAPGLQCHPPKDDEAPLRALLLGRGRCLPARAPAVAEENPKESKPQAGTARPQDVNRRDQQRNPGTSTTPSQPNSAGVQDTEMGPCRRHLDSVLQQLQTEVYRGAQTLYVPNCDHRGFYRKRQCRSSQGQRRGPCWCVDRMGKSLPGSPDGNGSSSCPTGSSG
  binding: binds
